Source: article doi:10.1101/2020.02.01.930206
Results are given in words; binding and its absence hold for the method and conditions named. For some assays here: Binding seen in cells or lysates may run through a third protein. Some entries that bind do so weakly or less than the wild type. For some assays here: Tags and fused reporters may be left off the sequences shown.

The chains behind the UniProt entries cited, without tags or fusion partners. Where a name states a change or a piece, a line headed by the entry shows the natural chain unless it says otherwise.
UniProt O76071: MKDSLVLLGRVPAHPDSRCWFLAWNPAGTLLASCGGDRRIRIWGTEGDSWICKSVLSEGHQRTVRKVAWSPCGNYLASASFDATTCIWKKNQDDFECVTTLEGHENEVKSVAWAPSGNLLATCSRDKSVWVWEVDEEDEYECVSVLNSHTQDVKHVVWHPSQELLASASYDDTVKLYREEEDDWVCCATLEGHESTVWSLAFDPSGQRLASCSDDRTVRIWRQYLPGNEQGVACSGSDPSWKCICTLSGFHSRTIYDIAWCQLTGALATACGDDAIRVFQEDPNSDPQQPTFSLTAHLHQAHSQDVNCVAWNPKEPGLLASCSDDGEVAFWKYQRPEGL

Legend:
[1] = target: CIA targeting complex co-expressed in HEK293 cells (Flag-MMS19, myc-CIAO2B, wild-type myc-CIAO1) (human) (UniProt Q96T76+Q9Y3D0+O76071); experiment: co-IP
[2] = target: CIA targeting complex co-expressed in HEK293 cells with myc-CIAO1 R125E (human) (UniProt Q96T76+Q9Y3D0+O76071); experiment: co-IP
[3] = target: human primase (PriL-PriS heterodimer) (human) (UniProt P49643+P49642); experiment: ITC

binding [1] | binding [2] | binding [3] | Binder
binds | no binding | – | myc-PriL/S (myc-tagged primase co-expressed in HEK293 cells) (complex, UniProt P49643;P49642) chain 1: MEFSGRKWRKLRLAGDQRNASYPHCLQFYLQPPSENISLIEFENLAIDRVKLLKSVENLGVSYVKGTEQYQSKLESELRKLKFSYRENLEDEYEPRRRDHISHFILRLAYCQSEELRRWFIQQEMDLLRFRFSILPKDKIQDFLKDSQLQFEAISDEEKTLREQEIVASSPSLSGLKLGFESIYKIPFADALDLFRGRKVYLEDGFAYVPLKDIVAIILNEFRAKLSKALALTARSLPAVQSDERLQPLLNHLSHSYTGQDYSTQGNVGKISLDQIDLLSTKSFPPCMRQLHKALRENHHLRHGGRMQYGLFLKGIGLTLEQALQFWKQEFIKGKMDPDKFDKGYSYNIRHSFGKEGKRTDYTPFSCLKIILSNPPSQGDYHGCPFRHSDPELLKQKLQSYKISPGGISQILDLVKGTHYQVACQKYFEMIHNVDDCGFSLNHPNQFFCESQRILNGGKDIKKEPIQPETPQPKPSVQKTKDASSALASLNSSLEMDMEGLEDYFSEDS chain 2: METFDPTELPELLKLYYRRLFPYSQYYRWLNYGGVIKNYFQHREFSFTLKDDIYIRYQSFNNQSDLEKEMQKMNPYKIDIGAVYSHRPNQHNTVKLGAFQAQEKELVFDIDMTDYDDVRRCCSSADICPKCWTLMTMAIRIIDRALKEDFGFKHRLWVYSGRRGVHCWVCDESVRKLSSAVRSGIVEYLSLVKGGQDVKKKVHLSEKIHPFIRKSINIIKKYFEEYALVNQDILENKESWDKILALVPETIHDELQQSFQKSHNSLQRWEHLKKVASRYQNNIKNDKYGPWLEWEIMLQYCFPRLDINVSKGINHLLKSPFSVHPKTGRISVPIDLQKVDQFDPFTVPTISFICRELDAISTNEEEKEENEAESDVKHRTRDYKKTSLAPYVKVFEHFLENLDKSRKGELLKKSDLQKDF
binds | no binding | – | myc-DNA2 (enzyme, UniProt Q6ZQJ5 1-1062) MEPLDELDLLLLEEDGGAEAVPRVELLRKKADALFPETVLSRGVDNRYLVLAVETSQNERGAEEKRLHVTASQDREHEVLCILRNGWSSVPVEPGDIVHLEGDCTSEPWIIDDDFGYFILYPDMMISGTSVASSIRCLRRAVLSETFRGSDPATRQMLIGTILHEVFQKAISESFAPERLQELALQTLREVRHLKEMYRLNLSQDEILCEVEEYLPSFSKWAEDFMRKGPSSEFPQMQLSLPSDGSNRSSPCNIEVVKSLDIEESIWSPRFGLKGKIDVTVGVKIHRDCKMKYKVMPLELKTGKESNSIEHRSQVVLYTLLSQERREDPEAGWLLYLKTGQMYPVPANHLDKRELLKLRNWLAASLLHRVSRAAPGEEARLSALPQIIEEEKTCKYCSQIGNCALYSRAVEEQGDDASIPEAMLSKIQEETRHLQLAHLKYFSLWCLMLTLESQSKDNRKTHQSIWLTPASELEESGNCVGNLVRTEPVSRVCDGQYLHNFQRKNGPMPATNLMAGDRIILSGEERKLFALSKGYVKKMNKAAVTCLLDRNLSTLPATTVFRLDREERHGDISTPLGNLSKLMESTDPSKRLRELIIDFREPQFIAYLSSVLPHDAKDTVANILKGLNKPQRQAMKRVLLSKDYTLIVGMPGTGKTTTICALVRILSACGFSVLLTSYTHSAVDNILLKLAKFKVGFLRLGQSHKVHPDIQKFTEEEICRSRSIASLAHLEELYNSHPIVATTCMGINHPIFSRKTFDFCIVDEASQISQPVCLGPLFFSRRFVLVGDHQQLPPLVVNREARALGMSESLFKRLERNESAVVQLTVQYRMNRKIMSLSNKLTYAGKLECGSDRVANAVLALPNLKDARLSLQLYADYSDSPWLAGVLEPDNPVCFLNTDKVPAPEQVENGGVSNVTEARLIVFLTSTFIKAGCSPSDIGVIAPYRQQLRIISDLLARSSVGMVEVNTVDKYQGRDKSLILVSFVRSNEDGTLGELLKDWRRLNVALTRAKHKLILLGSVSSLKRFPPLGTLFDHLNAEQLILDLPSREHESLSHILGDCQRD
– | – | no binding | human MMS19-CIAO2B sub-complex (complex, UniProt Q96T76;Q9Y3D0) chain 1: MAAAAAVEAAAPMGALWGLVHDFVVGQQEGPADQVAADVKSGNYTVLQVVEALGSSLENPEPRTRARAIQLLSQVLLHCHTLLLEKEVVHLILFYENRLKDHHLVIPSVLQGLKALSLCVALPPGLAVSVLKAIFQEVHVQSLPQVDRHTVYNIITNFMRTREEELKSLGADFTFGFIQVMDGEKDPRNLLVAFRIVHDLISRDYSLGPFVEELFEVTSCYFPIDFTPPPNDPHGIQREDLILSLRAVLASTPRFAEFLLPLLIEKVDSEVLSAKLDSLQTLNACCAVYGQKELKDFLPSLWASIRREVFQTASERVEAEGLAALHSLTACLSRSVLRADAEDLLDSFLSNILQDCRHHLCEPDMKLVWPSAKLLQAAAGASARACDSVTSNVLPLLLEQFHKHSQSSQRRTILEMLLGFLKLQQKWSYEDKDQRPLNGFKDQLCSLVFMALTDPSTQLQLVGIRTLTVLGAQPDLLSYEDLELAVGHLYRLSFLKEDSQSCRVAALEASGTLAALYPVAFSSHLVPKLAEELRVGESNLTNGDEPTQCSRHLCCLQALSAVSTHPSIVKETLPLLLQHLWQVNRGNMVAQSSDVIAVCQSLRQMAEKCQQDPESCWYFHQTAIPCLLALAVQASMPEKEPSVLRKVLLEDEVLAAMVSVIGTATTHLSPELAAQSVTHIVPLFLDGNVSFLPENSFPSRFQPFQDGSSGQRRLIALLMAFVCSLPRNVEIPQLNQLMRELLELSCCHSCPFSSTAAAKCFAGLLNKHPAGQQLDEFLQLAVDKVEAGLGSGPCRSQAFTLLLWVTKALVLRYHPLSSCLTARLMGLLSDPELGPAAADGFSLLMSDCTDVLTRAGHAEVRIMFRQRFFTDNVPALVQGFHAAPQDVKPNYLKGLSHVLNRLPKPVLLPELPTLLSLLLEALSCPDCVVQLSTLSCLQPLLLEAPQVMSLHVDTLVTKFLNLSSSPSMAVRIAALQCMHALTRLPTPVLLPYKPQVIRALAKPLDDKKRLVRKEAVSARGEWFLLGSPGS chain 2: MVGGGGVGGGLLENANPLIYQRSGERPVTAGEEDEQVPDSIDAREIFDLIRSINDPEHPLTLEELNVVEQVRVQVSDPESTVAVAFTPTIPHCSMATLIGLSIKVKLLRSLPQRFKMDVHITPGTHASEHAVNKQLADKERVAAALENTHLLEVVNQCLSARS
